Assay results reported in the supplement of paper PMC10849652.
The other results are listed elsewhere or left out.

Protein sequences, listed by entry. Tags and fused reporters are not part of them. Lines headed by an entry give the natural chain unless they say otherwise; changes in a name come on top.
UniProt Q99590: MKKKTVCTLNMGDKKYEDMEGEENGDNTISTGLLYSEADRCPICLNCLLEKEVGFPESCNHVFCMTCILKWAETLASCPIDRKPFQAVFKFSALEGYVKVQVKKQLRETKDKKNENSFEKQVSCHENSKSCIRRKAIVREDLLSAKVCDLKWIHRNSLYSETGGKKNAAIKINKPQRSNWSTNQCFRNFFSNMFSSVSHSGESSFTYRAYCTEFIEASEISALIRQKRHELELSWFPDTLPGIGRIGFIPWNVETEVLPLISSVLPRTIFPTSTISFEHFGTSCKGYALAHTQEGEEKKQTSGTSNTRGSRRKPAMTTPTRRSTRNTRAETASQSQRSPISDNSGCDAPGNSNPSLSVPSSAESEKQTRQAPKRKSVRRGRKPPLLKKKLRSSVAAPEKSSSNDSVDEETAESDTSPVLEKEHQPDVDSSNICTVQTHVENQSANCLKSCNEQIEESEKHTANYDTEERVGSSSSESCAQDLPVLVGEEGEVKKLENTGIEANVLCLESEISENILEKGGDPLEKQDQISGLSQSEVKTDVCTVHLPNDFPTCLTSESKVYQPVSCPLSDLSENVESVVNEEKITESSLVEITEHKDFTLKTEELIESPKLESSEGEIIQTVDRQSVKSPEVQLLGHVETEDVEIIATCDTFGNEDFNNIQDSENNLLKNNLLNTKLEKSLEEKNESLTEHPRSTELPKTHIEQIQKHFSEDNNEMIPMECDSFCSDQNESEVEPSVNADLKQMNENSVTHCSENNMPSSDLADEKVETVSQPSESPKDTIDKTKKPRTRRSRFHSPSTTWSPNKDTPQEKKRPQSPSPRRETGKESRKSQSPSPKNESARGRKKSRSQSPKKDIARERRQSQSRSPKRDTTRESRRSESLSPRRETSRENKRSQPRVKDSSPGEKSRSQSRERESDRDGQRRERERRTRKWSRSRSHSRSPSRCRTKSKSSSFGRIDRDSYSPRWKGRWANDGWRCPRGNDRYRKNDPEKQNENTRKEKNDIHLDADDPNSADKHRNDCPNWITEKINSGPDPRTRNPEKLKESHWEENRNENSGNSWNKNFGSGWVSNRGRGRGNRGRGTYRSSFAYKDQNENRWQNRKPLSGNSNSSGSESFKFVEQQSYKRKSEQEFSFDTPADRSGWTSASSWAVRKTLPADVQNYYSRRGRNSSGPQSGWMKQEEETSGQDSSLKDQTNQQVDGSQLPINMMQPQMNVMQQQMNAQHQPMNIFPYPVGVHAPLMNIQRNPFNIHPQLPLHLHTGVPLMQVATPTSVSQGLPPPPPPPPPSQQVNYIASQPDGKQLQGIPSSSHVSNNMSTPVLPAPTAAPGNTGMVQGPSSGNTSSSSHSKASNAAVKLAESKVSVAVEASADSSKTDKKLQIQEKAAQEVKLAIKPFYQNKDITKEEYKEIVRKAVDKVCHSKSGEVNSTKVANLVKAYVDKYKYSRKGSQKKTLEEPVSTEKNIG
UniProt Q9Y6B6: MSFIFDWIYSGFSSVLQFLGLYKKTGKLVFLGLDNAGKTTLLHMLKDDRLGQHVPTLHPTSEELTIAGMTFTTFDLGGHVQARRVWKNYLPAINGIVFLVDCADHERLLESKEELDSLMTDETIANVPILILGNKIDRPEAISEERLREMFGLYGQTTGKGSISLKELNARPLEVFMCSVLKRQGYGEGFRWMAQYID
UniProt O75396: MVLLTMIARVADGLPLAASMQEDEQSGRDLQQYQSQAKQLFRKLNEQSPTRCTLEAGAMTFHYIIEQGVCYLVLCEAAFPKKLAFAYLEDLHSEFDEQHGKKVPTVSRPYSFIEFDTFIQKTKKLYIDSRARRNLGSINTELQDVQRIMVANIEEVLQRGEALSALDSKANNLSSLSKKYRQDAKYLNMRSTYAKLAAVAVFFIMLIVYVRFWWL
UniProt Q96KG9: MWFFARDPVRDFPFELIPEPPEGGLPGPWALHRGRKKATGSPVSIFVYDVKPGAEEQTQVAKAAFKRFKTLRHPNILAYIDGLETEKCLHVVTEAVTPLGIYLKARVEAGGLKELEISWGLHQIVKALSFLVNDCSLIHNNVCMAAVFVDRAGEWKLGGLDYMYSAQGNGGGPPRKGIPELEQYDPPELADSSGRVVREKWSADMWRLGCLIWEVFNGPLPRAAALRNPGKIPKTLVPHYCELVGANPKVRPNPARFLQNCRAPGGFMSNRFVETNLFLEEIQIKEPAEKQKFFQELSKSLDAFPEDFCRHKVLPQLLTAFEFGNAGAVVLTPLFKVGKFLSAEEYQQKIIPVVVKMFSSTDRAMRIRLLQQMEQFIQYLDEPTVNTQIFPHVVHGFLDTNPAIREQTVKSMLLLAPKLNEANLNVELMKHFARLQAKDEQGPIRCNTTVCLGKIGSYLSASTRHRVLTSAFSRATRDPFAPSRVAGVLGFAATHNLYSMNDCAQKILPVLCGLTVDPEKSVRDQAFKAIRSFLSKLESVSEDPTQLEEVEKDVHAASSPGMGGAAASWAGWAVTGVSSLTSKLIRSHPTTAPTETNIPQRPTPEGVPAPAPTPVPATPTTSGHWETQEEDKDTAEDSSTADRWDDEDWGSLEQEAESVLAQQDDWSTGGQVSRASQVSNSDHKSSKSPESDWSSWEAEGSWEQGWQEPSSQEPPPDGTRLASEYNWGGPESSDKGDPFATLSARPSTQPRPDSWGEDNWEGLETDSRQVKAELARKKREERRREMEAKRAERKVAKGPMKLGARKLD
UniProt O95248: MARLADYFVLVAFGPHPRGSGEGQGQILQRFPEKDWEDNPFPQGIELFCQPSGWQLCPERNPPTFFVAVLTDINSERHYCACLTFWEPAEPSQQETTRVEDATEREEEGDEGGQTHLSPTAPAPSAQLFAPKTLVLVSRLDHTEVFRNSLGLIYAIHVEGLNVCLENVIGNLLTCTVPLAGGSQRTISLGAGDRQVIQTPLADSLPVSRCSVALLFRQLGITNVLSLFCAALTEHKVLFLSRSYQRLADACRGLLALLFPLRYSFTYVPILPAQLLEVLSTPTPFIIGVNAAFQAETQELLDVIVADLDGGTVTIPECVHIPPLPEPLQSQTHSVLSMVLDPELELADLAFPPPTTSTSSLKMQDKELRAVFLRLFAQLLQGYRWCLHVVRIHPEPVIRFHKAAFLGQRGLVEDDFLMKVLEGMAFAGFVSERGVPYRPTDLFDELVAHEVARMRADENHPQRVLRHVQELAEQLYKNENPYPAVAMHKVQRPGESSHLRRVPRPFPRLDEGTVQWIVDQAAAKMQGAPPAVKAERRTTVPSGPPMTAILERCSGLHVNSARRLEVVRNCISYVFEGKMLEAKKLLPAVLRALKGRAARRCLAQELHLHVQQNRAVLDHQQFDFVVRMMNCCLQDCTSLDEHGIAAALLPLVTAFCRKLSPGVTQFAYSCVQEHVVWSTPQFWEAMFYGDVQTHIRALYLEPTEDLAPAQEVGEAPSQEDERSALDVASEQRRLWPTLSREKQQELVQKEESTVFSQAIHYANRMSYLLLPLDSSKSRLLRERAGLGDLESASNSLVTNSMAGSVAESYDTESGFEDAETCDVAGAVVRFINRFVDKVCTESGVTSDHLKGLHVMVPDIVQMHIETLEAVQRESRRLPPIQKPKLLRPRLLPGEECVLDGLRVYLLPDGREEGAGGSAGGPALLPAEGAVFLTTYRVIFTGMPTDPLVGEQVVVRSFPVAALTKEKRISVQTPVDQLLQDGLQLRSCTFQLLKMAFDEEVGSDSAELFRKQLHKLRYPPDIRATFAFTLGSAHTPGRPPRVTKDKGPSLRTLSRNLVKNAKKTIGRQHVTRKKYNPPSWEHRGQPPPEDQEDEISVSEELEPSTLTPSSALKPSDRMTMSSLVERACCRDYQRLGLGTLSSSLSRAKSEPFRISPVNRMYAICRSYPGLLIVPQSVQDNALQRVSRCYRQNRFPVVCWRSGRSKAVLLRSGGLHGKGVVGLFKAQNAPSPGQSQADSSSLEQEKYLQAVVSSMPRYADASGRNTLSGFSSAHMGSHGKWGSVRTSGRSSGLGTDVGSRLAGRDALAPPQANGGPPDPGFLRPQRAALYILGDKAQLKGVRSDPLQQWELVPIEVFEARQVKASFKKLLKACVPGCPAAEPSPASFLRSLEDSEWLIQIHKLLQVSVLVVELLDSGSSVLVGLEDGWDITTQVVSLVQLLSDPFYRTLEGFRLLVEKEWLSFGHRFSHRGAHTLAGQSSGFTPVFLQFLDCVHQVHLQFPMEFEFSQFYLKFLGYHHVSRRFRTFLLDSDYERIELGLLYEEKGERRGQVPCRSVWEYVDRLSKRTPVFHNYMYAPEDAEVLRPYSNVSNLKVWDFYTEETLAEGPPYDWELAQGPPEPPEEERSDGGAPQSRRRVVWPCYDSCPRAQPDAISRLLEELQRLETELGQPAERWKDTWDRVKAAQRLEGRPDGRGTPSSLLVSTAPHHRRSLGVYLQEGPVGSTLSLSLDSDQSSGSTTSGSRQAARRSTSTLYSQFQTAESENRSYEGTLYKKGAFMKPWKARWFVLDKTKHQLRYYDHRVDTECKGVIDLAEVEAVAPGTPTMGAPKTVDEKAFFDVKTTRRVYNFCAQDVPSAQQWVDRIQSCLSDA
UniProt Q8IZQ5, whole entry, looked up: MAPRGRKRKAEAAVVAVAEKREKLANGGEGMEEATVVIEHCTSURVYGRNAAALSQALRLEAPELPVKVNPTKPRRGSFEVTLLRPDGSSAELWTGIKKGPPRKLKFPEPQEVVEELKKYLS
UniProt Q0VDG4: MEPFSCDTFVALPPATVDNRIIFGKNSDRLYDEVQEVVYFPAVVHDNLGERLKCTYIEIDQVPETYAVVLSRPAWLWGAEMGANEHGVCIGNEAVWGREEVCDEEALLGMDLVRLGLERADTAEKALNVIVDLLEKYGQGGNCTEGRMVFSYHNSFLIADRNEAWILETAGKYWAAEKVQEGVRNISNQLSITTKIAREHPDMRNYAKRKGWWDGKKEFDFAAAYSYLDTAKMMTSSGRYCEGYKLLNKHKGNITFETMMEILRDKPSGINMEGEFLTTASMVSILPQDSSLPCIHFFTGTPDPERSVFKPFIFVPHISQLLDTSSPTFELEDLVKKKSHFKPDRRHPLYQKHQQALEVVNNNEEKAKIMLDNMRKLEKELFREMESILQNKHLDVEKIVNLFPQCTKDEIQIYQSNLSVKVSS
UniProt Q9UGP8: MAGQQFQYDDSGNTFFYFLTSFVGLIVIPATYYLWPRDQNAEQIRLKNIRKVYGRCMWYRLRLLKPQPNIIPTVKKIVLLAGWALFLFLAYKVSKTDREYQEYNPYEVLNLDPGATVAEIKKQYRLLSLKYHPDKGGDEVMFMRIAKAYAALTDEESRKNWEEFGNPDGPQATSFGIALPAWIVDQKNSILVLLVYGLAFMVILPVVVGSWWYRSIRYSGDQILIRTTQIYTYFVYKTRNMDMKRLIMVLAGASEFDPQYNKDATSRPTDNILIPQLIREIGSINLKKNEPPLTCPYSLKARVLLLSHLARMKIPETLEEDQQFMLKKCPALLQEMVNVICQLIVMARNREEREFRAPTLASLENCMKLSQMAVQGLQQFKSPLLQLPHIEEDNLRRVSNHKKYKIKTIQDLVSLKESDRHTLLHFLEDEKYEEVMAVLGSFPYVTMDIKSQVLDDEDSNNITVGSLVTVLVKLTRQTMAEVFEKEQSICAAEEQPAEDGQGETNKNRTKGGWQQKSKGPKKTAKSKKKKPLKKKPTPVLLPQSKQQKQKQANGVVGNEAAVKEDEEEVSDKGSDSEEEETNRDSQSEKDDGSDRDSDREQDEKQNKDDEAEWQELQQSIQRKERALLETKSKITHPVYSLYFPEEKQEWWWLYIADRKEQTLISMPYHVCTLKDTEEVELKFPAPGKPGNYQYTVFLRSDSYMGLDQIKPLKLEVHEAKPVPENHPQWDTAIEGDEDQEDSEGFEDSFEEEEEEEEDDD
UniProt Q92599: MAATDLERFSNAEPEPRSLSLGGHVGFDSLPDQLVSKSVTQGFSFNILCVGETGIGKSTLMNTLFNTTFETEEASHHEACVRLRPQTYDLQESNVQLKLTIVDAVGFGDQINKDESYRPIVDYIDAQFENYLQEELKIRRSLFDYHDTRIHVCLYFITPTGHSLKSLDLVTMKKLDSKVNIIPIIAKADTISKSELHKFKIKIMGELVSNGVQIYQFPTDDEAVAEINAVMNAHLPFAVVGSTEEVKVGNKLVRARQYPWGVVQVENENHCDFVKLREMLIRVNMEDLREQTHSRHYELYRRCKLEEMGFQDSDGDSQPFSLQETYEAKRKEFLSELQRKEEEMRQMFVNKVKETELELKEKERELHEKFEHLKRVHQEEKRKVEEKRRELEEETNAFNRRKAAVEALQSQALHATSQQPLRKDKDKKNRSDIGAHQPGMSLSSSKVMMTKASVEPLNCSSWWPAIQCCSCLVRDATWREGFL
UniProt Q9Y3A5: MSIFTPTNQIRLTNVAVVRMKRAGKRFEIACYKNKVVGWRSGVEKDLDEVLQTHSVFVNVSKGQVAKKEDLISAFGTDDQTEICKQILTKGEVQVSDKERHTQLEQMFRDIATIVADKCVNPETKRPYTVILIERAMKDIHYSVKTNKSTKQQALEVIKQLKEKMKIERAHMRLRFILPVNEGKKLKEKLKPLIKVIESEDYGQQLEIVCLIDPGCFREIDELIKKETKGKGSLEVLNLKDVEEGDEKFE

How the values were obtained:
Test in all cases: log2 fold change, soluble protein after heating vs DMSO (PISA); higher = thermal stabilisation; K562 lysate, 10 uM; active = over 0.2 and 3.5 SD of the protein, either way, in both replicates (recomputed)
ibrutinib = compound: C=CC(=O)N1CCC[C@@H](n2nc(-c3ccc(Oc4ccccc4)cc3)c3c(N)ncnc32)C1 [ibrutinib]
Summary of the method: (§1)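 Values give the log-two fold change in thermal stability against solvent controls, from duplicates. Crude K562 extract at 1 mg/mL protein, made by dounce homogenisation in PBS pH 7.4 with 1 mM MgCl2, was treated with 10 μM compound for 30 min. After 3 min heating across 48°C-58°C, aliquots were pooled, adjusted to 0.5% NP-40 at 4°C and centrifuged at 21,000xg for 90 min. The supernatant was measured by TMTpro 16plex LC-MS/MS with channel sums equalised.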

[1] = compound: CC(=O)c1cnc2ccc(-c3cc(Cl)c(O)c(Cl)c3)nc2c1N[C@H]1CC[C@H](CN(C)C)CC1
Summary of the method: as §1

ralimetinib = compound: CC(C)(C)Cn1c(N)nc2ccc(-c3[nH]c(C(C)(C)C)nc3-c3ccc(F)cc3)nc21 [ralimetinib]
Summary of the method: as §1

[2] = compound: CC(C)(O)CC(=O)NCCn1ccc2ncnc(Nc3ccc(Oc4cccc(C(F)(F)F)c4)c(Cl)c3)c21
Summary of the method: as §1

[3] = compound: CC(C)C1=C2N=C(C=C(N2N=C1)NCC3=CC=CC=C3)NCCCCCCN
Summary of the method: as §1

[4] = compound: CC1=C(C(CC(=O)N1)C2=CC=C(C=C2)C(F)(F)F)C(=O)NC3=C(C=C4C(=C3)C=NN4)F
Summary of the method: as §1

[5] = compound: CC1=C(C2=C(C=C1)C(=O)C3=CC=CC=C3N2CCCN)C
Summary of the method: as §1

[6] = compound: CC1=C(C=C(C=C1)NC(=O)C2=CC(=CC=C2)C(C)(C)C#N)NC3=CC4=C(C=C3)N=CN(C4=O)C
Summary of the method: as §1

[7] = compound: CC1=C(C=C(C=C1)NC(=O)C2=CC(=CC=C2)N(C)C)NC(=O)C3=CC=C(C=C3)O
Summary of the method: as §1

[8] = compound: CC1=CC=C(C=C1)SC2=C3C=C(SC3=CN=C2)C(=O)N
Summary of the method: as §1

vemurafenib = compound: CCCS(=O)(=O)Nc1ccc(F)c(C(=O)c2c[nH]c3ncc(-c4ccc(Cl)cc4)cc23)c1F [vemurafenib]
Summary of the method: as §1

[9] = compound: CCCS(=O)(=O)Nc1ccc(F)c(C(=O)c2c[nH]c3ncc(Cl)cc23)c1F
Summary of the method: as §1

barasertib = compound: CCN(CCCOc1ccc2c(Nc3cc(CC(=O)Nc4cccc(F)c4)[nH]n3)ncnc2c1)CCOP(=O)(O)O [barasertib]
Summary of the method: as §1

[10] = compound: CC[C@@H]1C(=O)N(C)c2cnc(Nc3ccc(C(=O)NC4CCN(C)CC4)cc3OC)nc2N1C1CCCC1
Summary of the method: as §1

volasertib = compound: CC[C@@H]1C(=O)N(C)c2cnc(Nc3ccc(C(=O)N[C@H]4CC[C@H](N5CCN(CC6CC6)CC5)CC4)cc3OC)nc2N1C(C)C [volasertib]
Summary of the method: as §1

[11] = compound: CCn1c(C(=O)N(C2CC2)C2CC2)cc2c3c(ncn3C)c(Nc3cc(C)n(C)n3)nc21
Summary of the method: as §1

[12] = compound: CCn1cc(-c2ccnc3[nH]c(-c4cccc(CN(C)C)c4)cc23)c(-c2ccc(NC(=O)N(C)C)cc2)n1
Summary of the method: as §1

[13] = compound: CN1CCC(CNc2ccc3ncc(-c4cccc(OC(F)(F)F)c4)n3n2)CC1
Summary of the method: as §1

saracatinib = compound: CN1CCN(CCOc2cc(OC3CCOCC3)c3c(Nc4c(Cl)ccc5c4OCO5)ncnc3c2)CC1 [saracatinib]
Summary of the method: as §1

sotrastaurin = compound: CN1CCN(c2nc(C3=C(c4c[nH]c5ccccc45)C(=O)NC3=O)c3ccccc3n2)CC1 [sotrastaurin]
Summary of the method: as §1

Measured: log2 fold change

SEC61B (UniProt P60468)
inactive: ibrutinib -0.034 | [1] 0.008 | ralimetinib 0.012 | [2] -0.056 | [3] -0.05 | [4] 0.042 | [5] 0.089 | [6] -0.063 | [7] 0.026 | [8] -0.041 | vemurafenib -0.015 | [9] -0.029 | barasertib -0.022 | [10] -0.045 | volasertib 0.03 | [11] 0.025 | [12] -0.038 | [13] 0.027 | saracatinib 0.027 | sotrastaurin 0.043

SCAF11 (UniProt Q99590)
inactive: ibrutinib 0.041 | [1] -0.002 | ralimetinib 0.021 | [2] -0.033 | [3] 0.011 | [4] -0.012 | [5] -0.041 | [6] 0.021 | [7] -0.004 | [8] -0.041 | vemurafenib 0.066 | [9] 0.022 | barasertib -0.03 | [10] 0.073 | volasertib 0 | [11] 0.003 | [12] -0.009 | [13] 0.007 | saracatinib 0.018 | sotrastaurin -0.006

SELENBP1 isoform 4 (UniProt Q13228)
inactive: ibrutinib 0.01 | [1] 0.007 | ralimetinib -0.011 | [2] -0.016 | [3] -0.006 | [4] -0.003 | [5] -0.007 | [6] -0.002 | [7] -0.019 | [8] -0.01 | vemurafenib -0.015 | [9] 0.018 | barasertib -0.021 | [10] 0.014 | volasertib 0.02 | [11] -0.009 | [12] 0.004 | [13] 0.008 | saracatinib -0.025 | sotrastaurin -0.007

Two records drawn at random from the list so far:
SCAF11 (UniProt Q99590)
inactive: ibrutinib 0.041 | [1] -0.002 | ralimetinib 0.021 | [2] -0.033 | [3] 0.011 | [4] -0.012 | [5] -0.041 | [6] 0.021 | [7] -0.004 | [8] -0.041 | vemurafenib 0.066 | [9] 0.022 | barasertib -0.03 | [10] 0.073 | volasertib 0 | [11] 0.003 | [12] -0.009 | [13] 0.007 | saracatinib 0.018 | sotrastaurin -0.006

SEC61B (UniProt P60468)
inactive: ibrutinib -0.034 | [1] 0.008 | ralimetinib 0.012 | [2] -0.056 | [3] -0.05 | [4] 0.042 | [5] 0.089 | [6] -0.063 | [7] 0.026 | [8] -0.041 | vemurafenib -0.015 | [9] -0.029 | barasertib -0.022 | [10] -0.045 | volasertib 0.03 | [11] 0.025 | [12] -0.038 | [13] 0.027 | saracatinib 0.027 | sotrastaurin 0.043

Remaining list, next part

SAR1B (UniProt Q9Y6B6)
inactive: ibrutinib 0.02 | [1] -0.094 | ralimetinib 0.045 | [2] -0.032 | [3] 0.093 | [4] 0.154 | [5] -0.018 | [6] 0.026 | [7] -0.065 | [8] 0.077 | vemurafenib 0.034 | [9] 0 | barasertib 0.165 | [10] 0.04 | volasertib -0.042 | [11] 0.017 | [12] -0.017 | [13] -0.09 | saracatinib 0.041 | sotrastaurin 0.047

SEC22B (UniProt O75396)
inactive: ibrutinib 0.02 | [1] -0.019 | ralimetinib -0.009 | [2] -0.005 | [3] -0.003 | [4] 0.02 | [5] -0.031 | [6] -0.001 | [7] -0.03 | [8] 0.025 | vemurafenib 0.04 | [9] 0.008 | barasertib 0.049 | [10] 0.028 | volasertib 0.02 | [11] -0.041 | [12] -0.03 | [13] 0.038 | saracatinib -0.024 | sotrastaurin -0.05

SCYL1 (UniProt Q96KG9)
inactive: ibrutinib 0.01 | [1] -0.042 | ralimetinib 0.068 | [2] 0.068 | [3] -0.006 | [4] 0.033 | [5] -0.004 | [6] 0.007 | [7] -0.014 | [8] 0.009 | vemurafenib 0.054 | [9] -0.016 | barasertib -0.038 | [10] 0.054 | volasertib 0 | [11] 0.027 | [12] 0.039 | [13] 0.024 | saracatinib -0.009 | sotrastaurin 0.041

SEPSECS (UniProt Q9HD40)
inactive: ibrutinib 0.008 | [1] -0.015 | ralimetinib 0.039 | [2] -0.016 | [3] -0.011 | [4] 0.033 | [5] -0.013 | [6] -0.004 | [7] 0.001 | [8] -0.026 | vemurafenib 0.024 | [9] -0.004 | barasertib -0.062 | [10] 0.009 | volasertib 0.013 | [11] -0.018 | [12] 0.678 | [13] 0.08 | saracatinib 0.028 | sotrastaurin -0.009

SBF1 isoform 4 (UniProt O95248)
inactive: ibrutinib 0.086 | [1] 0.116 | ralimetinib 0 | [2] -0.021 | [3] -0.079 | [4] 0.045 | [5] -0.039 | [6] -0.012 | [7] 0.054 | [8] 0.079 | vemurafenib 0.118 | [9] 0.012 | barasertib 0.033 | [10] 0.071 | volasertib -0.111 | [11] 0.014 | [12] -0.107 | [13] 0.029 | saracatinib 0.062 | sotrastaurin 0

SELENOH (UniProt Q8IZQ5)
inactive: ibrutinib -0.013 | [1] 0.029 | ralimetinib 0.027 | [2] -0.03 | [3] -0.013 | [4] -0.037 | [5] -0.01 | [6] 0.022 | [7] -0.008 | [8] 0.015 | vemurafenib -0.012 | [9] -0.008 | barasertib -0.043 | [10] 0.026 | volasertib 0.008 | [11] 0.009 | [12] 0.158 | [13] -0.142 | saracatinib -0.067 | sotrastaurin 0.009

SCRN3 (UniProt Q0VDG4)
inactive: ibrutinib -0.011 | [1] -0.001 | ralimetinib -0.019 | [2] 0 | [3] -0.025 | [4] 0.016 | [5] -0.006 | [6] 0.006 | [7] -0.004 | [8] -0.003 | vemurafenib -0.009 | [9] 0.02 | barasertib -0.018 | [10] 0.023 | volasertib -0.012 | [11] -0.017 | [12] 0.011 | [13] -0.03 | saracatinib -0.007 | sotrastaurin 0.004

SEC63 (UniProt Q9UGP8)
inactive: ibrutinib 0.018 | [1] 0.023 | ralimetinib -0.003 | [2] 0.003 | [3] -0.024 | [4] -0.012 | [5] -0.014 | [6] 0.016 | [7] -0.011 | [8] 0.01 | vemurafenib 0.025 | [9] -0.001 | barasertib -0.041 | [10] 0.063 | volasertib 0.019 | [11] -0.005 | [12] -0.119 | [13] 0.018 | saracatinib -0.006 | sotrastaurin -0.014

SEPTIN8 (UniProt Q92599)
inactive: ibrutinib 0.004 | [1] -0.005 | ralimetinib 0.025 | [2] -0.007 | [3] -0.008 | [4] -0.029 | [5] 0.008 | [6] -0.043 | [7] -0.045 | [8] -0.004 | vemurafenib 0.021 | [9] 0.011 | barasertib -0.008 | [10] -0.028 | volasertib 0.024 | [11] -0.005 | [12] 0.002 | [13] 0.016 | saracatinib 0.005 | sotrastaurin -0.006

SBDS (UniProt Q9Y3A5)
inactive: ibrutinib -0.047 | [1] -0.037 | ralimetinib -0.015 | [2] -0.01 | [3] -0.004 | [4] -0.02 | [5] 0.004 | [6] 0.029 | [7] -0.026 | [8] -0.012 | vemurafenib -0.027 | [9] 0.002 | barasertib -0.023 | [10] 0.019 | volasertib 0.005 | [11] -0.036 | [12] -0.077 | [13] -0.005 | saracatinib -0.018 | sotrastaurin -0.005

SCARB2 (UniProt Q14108)
inactive: ibrutinib -0.009 | [1] -0.023 | ralimetinib -0.012 | [2] -0.019 | [3] -0.045 | [4] 0.026 | [5] -0.025 | [6] 0.017 | [7] 0.008 | [8] -0.025 | vemurafenib -0.005 | [9] -0.003 | barasertib -0.011 | [10] 0 | volasertib 0.014 | [11] 0.026 | [12] 0.127 | [13] -0.07 | saracatinib 0.017 | sotrastaurin -0.004

SCAMP3 (UniProt O14828)
inactive: ibrutinib -0.012 | [1] -0.015 | ralimetinib -0.025 | [2] 0 | [3] -0.049 | [4] 0.007 | [5] 0.02 | [6] -0.006 | [7] -0.007 | [8] 0.012 | vemurafenib -0.018 | [9] -0.017 | barasertib 0.033 | [10] 0.033 | volasertib 0.003 | [11] 0.016 | [12] 0.006 | [13] -0.023 | saracatinib -0.011 | sotrastaurin -0.019

SEPTIN11 isoform 2 (UniProt Q9NVA2)
inactive: ibrutinib 0.023 | [1] 0.008 | ralimetinib 0.004 | [2] -0.021 | [3] 0.023 | [4] 0.001 | [5] 0.013 | [6] 0.018 | [7] 0.004 | [8] -0.018 | vemurafenib -0.004 | [9] -0.023 | barasertib -0.05 | [10] 0.018 | volasertib 0.018 | [11] -0.016 | [12] -0.009 | [13] -0.001 | saracatinib 0.001 | sotrastaurin 0.007
